Assay results taken from patent US8084644B2, “Iminopropene compound and use thereof” (Sumitomo Chemical Company, Limited, priority 2005, dated 2011).
Some entries share one result that the patent states for a list of compounds. For at least one compound, name, drawing or mass did not settle the structure. Some compounds share one range, which may span the group rather than tell each member.

Tests used:
Assay type in all cases: in vivo
Musca domestica = assay: Test Example 5: filter paper test on houseflies; conditions: 500 ppm, female adult houseflies, after 24 hours
Adoxophyes orana = assay: Test Example 2: artificial diet test on summer fruit tortrix larvae; conditions: 500 ppm, first-instar larvae, after 7 days
Blattalla germanica = assay: Test Example 6: filter paper test on German cockroach; conditions: 500 ppm, male adult German cockroach, after 6 days
Culex pipiens pallens = assay: Test Example 7: water treatment test on common mosquito larvae; conditions: concentration of active ingredient 3.5 ppm in water; last-instar larvae; after one day
Spodoptela litura = assay: Test Example 1: artificial diet test on tobacco cutworm larvae; conditions: 500 ppm, fourth-instar larvae, after 6 days
Aphis gossypii = assay: Test Example 3: spray test on cotton aphids on cucumber; conditions: 500 ppm, first-instar larvae on cucumber, after 6 days
Plutella xylostella = assay: Test Example 9: cabbage test on diamondback, second-instar; conditions: 500 ppm, 25° C., after five days
Nilaparvata lugens = assay: Test Example 4: spray test on brown rice planthopper on rice; conditions: 500 ppm, first to second-instar larvae on rice, after 6 days
Bemisia argentifolii = assay: Test Example 10: spray test on silver leaf white fly on cabbage; conditions: 200 ppm, after seven days
[1] = test system: Haemaphysalis longicornis; assay: Test Example 11: filter paper bag contact test on ticks; conditions: 0.5 mg test compound on 5 cm×10 cm filter paper; after 2 days
Procedure: 0.5 mg of the test compound was dissolved to […]. Onto one side of filter paper having 5 cm×10 cm, the solution was applied uniformly and then air-dried. Thereafter, the filter paper was folded in half and fixed by paper clips at the side to form bag like shape. Ten Haemaphysalis longicornis was put into the bag, and then the bag was closed with a paper clip. After 2 days, the number of dead insects was examined.

SMILES: C(=CC(=Nc1ccccc1)Sc1ccc2ccccc2c1)Sc1ccccc1 [(14), 2-Naphtyl N-phenyl-3-(phenylthio)thioacrylimidate]
- index number (mortality) (Musca domestica): 3 (mortality 70 to 99%)
- index number (mortality) (Adoxophyes orana): 3 (mortality 80 to 99%)
- index number (mortality) (Blattalla germanica): 4 (mortality 100%)
- index number (mortality) (Culex pipiens pallens): 4 (mortality 91 to 100%)
- index number (mortality) (Spodoptela litura): 3 (mortality 80 to 99%)
- index number (surviving rate based on untreated check) (Aphis gossypii): 3 (surviving rate 1 to 10%)
- index number (mortality) (Plutella xylostella): 3 (mortality 80 to 99%)

SMILES: C(=CC(=Nc1ccccc1)Sc1cccc2ccccc12)Sc1ccccc1 [(31), 1-Naphtyl N-phenyl-3-(phenylthio)thioacrylimidate]
- index number (mortality) (Musca domestica): 3 (mortality 70 to 99%)
- index number (mortality) (Adoxophyes orana): 3 (mortality 80 to 99%)
- index number (mortality) (Blattalla germanica): 4 (mortality 100%)
- index number (surviving rate based on untreated check) (Nilaparvata lugens): 3 (surviving rate 1 to 10%)
- index number (mortality) (Culex pipiens pallens): 4 (mortality 91 to 100%)
- index number (mortality) (Spodoptela litura): 3 (mortality 80 to 99%)
- index number (surviving rate based on untreated check) (Aphis gossypii): 3 (surviving rate 1 to 10%)
- index number (mortality) (Plutella xylostella): 3 (mortality 80 to 99%)

SMILES: CC(C)c1ccc(N=C(C=CSc2ccccc2)Oc2ccc3ccccc3c2)cc1 [(83), 2-Naphtyl N-[4-(1-methylethyl)phenyl]-3-(phenylthio)acrylimidate]
- index number (mortality) (Adoxophyes orana): 3 (mortality 80 to 99%)
- index number (mortality) (Spodoptela litura): 3 (mortality 80 to 99%)
- index number (mortality) (Plutella xylostella): 3 (mortality 80 to 99%)

SMILES: CC(C)c1ccc(N=C(C=CSc2ccccc2)Oc2ccc3c(c2)CCCC3)cc1 [(85), 5,6,7,8-Tetrahydro-2-naphtyl N-[4-(1-methylethyl)phenyl]-3-(phenylthio)acrylimidate]
- index number (surviving rate based on untreated check) (Aphis gossypii): 3 (surviving rate 1 to 10%)

SMILES: C(=CC(=Nc1ccccc1)Oc1ccc2ccccc2c1)Sc1ccccc1 [(189), 2-Naphtyl N-phenyl-3-(phenylthio)acrylimidate]
- index number (mortality) (Adoxophyes orana): 3 (mortality 80 to 99%)
- index number (mortality) (Bemisia argentifolii): 3 (mortality 90 to 99%)
- mortality [1]: 100%
- index number (mortality) (Spodoptela litura): 3 (mortality 80 to 99%)
- index number (mortality) (Plutella xylostella): 3 (mortality 80 to 99%)

SMILES: C(=CC(=Nc1ccccc1)Oc1ccc2ccccc2c1)Oc1ccccc1 [(193), 2-Naphtyl N-phenyl-3-phenoxyacrylimidate]
- index number (mortality) (Bemisia argentifolii): 3 (mortality 90 to 99%)
- index number (mortality) (Plutella xylostella): 3 (mortality 80 to 99%)

SMILES: C(=CC(=Nc1ccccc1)Oc1ccccc1)Sc1cccc2ccccc12 [(195), Phenyl 3-(1-naphtylthio)-N-phenylacrylimidate]
- mortality [1]: 100%

SMILES: Cc1cccc(OC(C=CON=C2CCCCC2)=Nc2ccc(C)c(C)c2)c1 [(493), 3-Methylphenyl 3-cyclohexlideneaminoxy-N-(3,4-dimethylphenyl)acrylimidate]
- index number (mortality) (Adoxophyes orana): 3 (mortality 80 to 99%)
- index number (mortality) (Culex pipiens pallens): 4 (mortality 91 to 100%)
- index number (mortality) (Spodoptela litura): 3 (mortality 80 to 99%)
- index number (mortality) (Plutella xylostella): 3 (mortality 80 to 99%)
